From the supplement of paper PMC8256030
Values joined by “and” are separate entries in the source; they are usually repeats but may differ in a detail not shown here. Equal values may be shown once. This is one part of the list. Repeats in this data set agree poorly, so a single value says little.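 HEK293T cells were given each compound shortly before transfection with a reporter in which red mCherry is followed by the SARS-CoV-2 frameshift element and then GFP in the −1 frame, so GFP appears only after frameshifting.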

tested on: HEK293T; test: percent viability (nuclei count) relative to control; higher = more viable cells; conditions: 10 µM; 24 h

Structure (SMILES) | percent viability
COc1ccc2c(c1)c(CC(=O)NO)c(C)n2C(=O)c1ccc(Cl)cc1 [oxametacin] | 132%
CC1=NN(c2ccccc2)C(=O)C1 [edaravone] | 210%
CC(C)(C)C(O)/C=C/c1ccc2c(c1)OCO2 (stereo unspecified) [stiripentol] | 296%
CCOc1ccc2ccccc2c1C(=O)N[C@@H]1C(=O)N2[C@@H]1SC(C)(C)[C@@H]2C(=O)O | 329%
C[C@]12CC[C@@H]3c4ccc(O)cc4CC[C@H]3[C@@H]1CC[C@@H]2OC(=O)CCC1CCCC1 | 141%
Clc1ccc2c(c1)CCc1cccnc1C2=C1CCNCC1 [desloratadine] | 280% and 164%
CC[C@]1(O)C[C@@H]2CN(CCc3c([nH]c4ccccc34)[C@@](C(=O)OC)(c3cc4c(cc3OC)N(C)[C@H]3[C@@](O)(C(=O)OC)[C@H](OC(C)=O)[C@]5(CC)C=CCN6CC[C@]43[C@@H]65)C2)C1 [Velban] | 27%
CN1C(C(=O)Nc2ccccn2)=C(O)c2sc(Cl)cc2S1(=O)=O [Lorcam] | 200%
C[C@H](CCC(=O)NCCS(=O)(=O)O)[C@H]1CC[C@H]2[C@@H]3[C@@H](O)C[C@@H]4C[C@H](O)CC[C@]4(C)[C@H]3CC[C@]12C [Tauroursodeoxycholic acid] | 209%
CC[C@@H]1C(=O)N(C)c2cnc(Nc3ccc(C(=O)NC4CCN(C)CC4)cc3OC)nc2N1C1CCCC1 | 34.8%
C[C@]12CCC(=O)C=C1CC[C@@H]1[C@@H]2[C@@H](O)C[C@@]2(C)[C@H]1CC[C@]2(O)C(=O)COC(=O)CCC(=O)O | 155%
